Values of other authors as cited in patent US20070105780A1, “Therapeutic agent for iNOS generating illness” (priority 2005, published 2007).
At least one structure is not confirmed: it was looked up by name or label, or the drawing left a doubt.

System: iNOS mRNA in RAW 264.7 cells
Conditions: IFNγ-induced RAW 264.7 cells; cited from earlier work

For `C[C@@H]1C[C@H]2[C@@H]3CCC4=CC(=O)C=C[C@]4(C)[C@@]3(F)[C@@H](O)C[C@]2(C)[C@@]1(O)C(=O)CO` [dexamethasone], the “reduction in the steady state level of the iNOS mRNA” value is given as roughly 50%.
